Reference: PMC8852700

By UniProt entry, the sequences of proteins in these tests, tags left out. Where a name states a change or a piece, a line headed by the entry shows the natural chain unless it says otherwise. Residues count along the entry.
UniProt Q54841: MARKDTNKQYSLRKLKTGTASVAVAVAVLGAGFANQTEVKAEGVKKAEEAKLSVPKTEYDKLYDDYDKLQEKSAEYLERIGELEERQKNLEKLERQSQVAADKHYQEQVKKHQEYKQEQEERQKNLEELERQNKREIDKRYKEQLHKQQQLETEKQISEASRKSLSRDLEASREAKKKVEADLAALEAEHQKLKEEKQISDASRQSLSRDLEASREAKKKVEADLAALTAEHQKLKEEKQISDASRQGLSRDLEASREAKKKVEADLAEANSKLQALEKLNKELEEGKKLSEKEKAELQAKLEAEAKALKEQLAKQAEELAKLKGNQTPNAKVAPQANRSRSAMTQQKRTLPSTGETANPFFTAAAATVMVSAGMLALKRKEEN
UniProt P16947, residues 42-359: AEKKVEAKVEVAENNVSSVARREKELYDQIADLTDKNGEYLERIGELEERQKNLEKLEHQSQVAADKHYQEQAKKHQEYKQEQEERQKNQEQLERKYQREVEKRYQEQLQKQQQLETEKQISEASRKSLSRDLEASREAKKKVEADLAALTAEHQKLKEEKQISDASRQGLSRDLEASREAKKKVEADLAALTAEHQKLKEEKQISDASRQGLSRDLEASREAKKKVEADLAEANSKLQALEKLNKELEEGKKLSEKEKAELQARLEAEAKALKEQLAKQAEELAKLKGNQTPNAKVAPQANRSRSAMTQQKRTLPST
UniProt P02768, residues 25-609: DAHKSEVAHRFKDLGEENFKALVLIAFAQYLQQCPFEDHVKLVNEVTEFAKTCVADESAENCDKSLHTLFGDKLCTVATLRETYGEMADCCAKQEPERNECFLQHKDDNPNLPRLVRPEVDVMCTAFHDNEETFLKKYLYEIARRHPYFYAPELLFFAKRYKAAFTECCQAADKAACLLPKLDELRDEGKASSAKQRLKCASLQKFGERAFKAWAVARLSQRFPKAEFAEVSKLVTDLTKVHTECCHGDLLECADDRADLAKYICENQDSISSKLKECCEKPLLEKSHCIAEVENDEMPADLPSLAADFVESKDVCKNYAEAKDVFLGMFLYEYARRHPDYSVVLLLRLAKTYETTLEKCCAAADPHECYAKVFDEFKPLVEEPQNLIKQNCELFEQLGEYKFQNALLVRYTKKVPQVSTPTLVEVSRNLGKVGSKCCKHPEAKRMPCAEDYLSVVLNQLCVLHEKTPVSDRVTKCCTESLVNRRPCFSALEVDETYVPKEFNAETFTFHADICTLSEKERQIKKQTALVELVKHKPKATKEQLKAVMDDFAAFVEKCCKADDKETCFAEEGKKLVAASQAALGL
UniProt P02671: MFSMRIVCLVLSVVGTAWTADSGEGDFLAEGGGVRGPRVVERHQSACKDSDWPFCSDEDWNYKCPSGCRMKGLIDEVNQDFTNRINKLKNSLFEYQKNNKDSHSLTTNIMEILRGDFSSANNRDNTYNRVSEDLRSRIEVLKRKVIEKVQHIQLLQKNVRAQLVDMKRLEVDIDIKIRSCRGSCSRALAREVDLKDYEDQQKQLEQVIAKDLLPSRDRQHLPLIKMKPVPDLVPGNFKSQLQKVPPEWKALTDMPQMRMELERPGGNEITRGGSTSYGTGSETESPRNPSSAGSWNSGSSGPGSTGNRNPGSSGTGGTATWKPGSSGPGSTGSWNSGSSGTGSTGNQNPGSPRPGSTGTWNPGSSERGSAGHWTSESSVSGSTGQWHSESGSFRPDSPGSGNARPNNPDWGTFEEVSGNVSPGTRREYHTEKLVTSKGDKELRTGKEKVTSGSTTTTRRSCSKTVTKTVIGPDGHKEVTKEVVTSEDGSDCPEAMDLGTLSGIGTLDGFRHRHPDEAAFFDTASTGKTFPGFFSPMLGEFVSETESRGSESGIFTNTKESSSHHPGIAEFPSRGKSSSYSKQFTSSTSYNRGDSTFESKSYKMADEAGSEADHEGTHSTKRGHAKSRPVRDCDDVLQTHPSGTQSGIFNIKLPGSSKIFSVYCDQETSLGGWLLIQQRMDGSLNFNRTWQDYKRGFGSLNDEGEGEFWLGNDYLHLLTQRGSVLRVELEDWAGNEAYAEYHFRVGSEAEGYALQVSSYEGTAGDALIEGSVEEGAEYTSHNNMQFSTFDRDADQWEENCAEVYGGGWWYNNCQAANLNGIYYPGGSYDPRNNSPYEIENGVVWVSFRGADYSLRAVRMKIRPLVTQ

Tests used:
Test in all cases: affinity purification with mass spectrometry; M protein (5 ug/mL) added to human plasma diluted 1:10 in D-PBS from five healthy donors, 1 h at room temperature; complexes pelleted at 12,000 x g for 1 min, washed, analysed by DIA-MS; only the target purified
[1] = molecular target: M1 protein (Streptococcus pyogenes) (UniProt Q99XV0)
[2] = molecular target: M89 protein (Streptococcus pyogenes) (UniProt Q54841)
[3] = molecular target: M49 protein (Streptococcus pyogenes) (UniProt P16947)
[4] = molecular target: M3 protein (Streptococcus pyogenes) (UniProt Q54841)
[5] = molecular target: M28 protein (Streptococcus pyogenes) (UniProt Q54841)
[6] = molecular target: T1, M5 protein (Streptococcus pyogenes) (UniProt P02977)
T1 sequence: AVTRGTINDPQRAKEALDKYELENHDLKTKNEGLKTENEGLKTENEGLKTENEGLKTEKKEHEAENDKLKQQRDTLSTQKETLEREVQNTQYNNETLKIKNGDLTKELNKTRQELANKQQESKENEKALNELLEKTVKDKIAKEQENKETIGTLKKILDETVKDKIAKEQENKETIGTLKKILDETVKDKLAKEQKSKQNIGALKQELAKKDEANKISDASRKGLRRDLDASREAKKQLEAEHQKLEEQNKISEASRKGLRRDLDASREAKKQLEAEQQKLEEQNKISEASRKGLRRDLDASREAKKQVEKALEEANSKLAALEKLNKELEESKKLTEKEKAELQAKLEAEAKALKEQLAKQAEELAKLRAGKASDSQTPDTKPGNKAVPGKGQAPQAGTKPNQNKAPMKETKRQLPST

Measured: binding

albumin (from UniProt P02768 25-609)
binds: all assays above

human fibrinogen (from UniProt P02671 36-866; P02675 45-491; P02679 27-453)
binds: [1] | [4] | [6]

No constants are given. Whether binding was seen depends on the method and setting. In cells and extracts the contact can be indirect. A yes stands for co-enrichment or nearness to the bait. Other partners may have been found.
